Among the data in the supplement of paper PMC12819154, “High-throughput peptide-centric local stability assay extends protein–ligand identification to membrane proteins, tissues and bacteria” (Nature Structural & Molecular Biology, 2025) are log2 fold change values, retold here.

Sequences of proteins named here, by UniProt entry; tags and fusion partners are left off. A change or cut given only in a name is not applied to a line headed by its entry.
UniProt P28799: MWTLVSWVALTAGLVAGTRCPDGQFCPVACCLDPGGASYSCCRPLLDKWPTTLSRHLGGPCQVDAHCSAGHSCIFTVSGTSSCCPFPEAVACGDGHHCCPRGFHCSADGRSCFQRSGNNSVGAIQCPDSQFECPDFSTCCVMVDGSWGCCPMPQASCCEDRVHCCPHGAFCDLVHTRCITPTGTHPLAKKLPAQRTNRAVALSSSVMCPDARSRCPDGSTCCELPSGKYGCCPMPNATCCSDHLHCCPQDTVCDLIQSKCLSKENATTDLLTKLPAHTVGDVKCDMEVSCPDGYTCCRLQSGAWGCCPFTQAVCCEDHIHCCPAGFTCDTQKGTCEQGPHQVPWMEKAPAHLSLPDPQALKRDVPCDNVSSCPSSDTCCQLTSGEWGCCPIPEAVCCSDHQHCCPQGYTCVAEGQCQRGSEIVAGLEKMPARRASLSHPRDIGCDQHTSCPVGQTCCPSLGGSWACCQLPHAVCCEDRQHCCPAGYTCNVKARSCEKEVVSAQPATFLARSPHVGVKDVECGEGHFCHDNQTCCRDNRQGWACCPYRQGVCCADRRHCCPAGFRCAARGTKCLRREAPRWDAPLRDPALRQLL
UniProt P30049: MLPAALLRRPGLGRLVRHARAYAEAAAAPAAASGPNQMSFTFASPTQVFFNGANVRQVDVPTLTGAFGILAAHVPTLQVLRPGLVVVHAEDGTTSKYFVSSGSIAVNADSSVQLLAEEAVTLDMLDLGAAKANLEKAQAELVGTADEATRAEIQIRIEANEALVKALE
UniProt P31146: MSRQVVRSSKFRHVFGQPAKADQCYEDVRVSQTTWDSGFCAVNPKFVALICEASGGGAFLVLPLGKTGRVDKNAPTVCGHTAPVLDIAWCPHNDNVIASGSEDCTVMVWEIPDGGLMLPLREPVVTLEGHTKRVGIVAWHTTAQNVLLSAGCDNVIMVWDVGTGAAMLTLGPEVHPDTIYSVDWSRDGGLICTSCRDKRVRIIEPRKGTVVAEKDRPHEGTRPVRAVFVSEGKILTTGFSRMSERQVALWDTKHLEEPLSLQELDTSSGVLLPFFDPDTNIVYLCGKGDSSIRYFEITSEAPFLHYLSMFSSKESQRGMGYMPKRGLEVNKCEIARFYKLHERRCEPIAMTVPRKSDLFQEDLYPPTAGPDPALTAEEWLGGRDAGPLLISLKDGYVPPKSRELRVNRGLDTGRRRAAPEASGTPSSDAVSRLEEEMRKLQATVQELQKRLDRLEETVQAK
UniProt P35658: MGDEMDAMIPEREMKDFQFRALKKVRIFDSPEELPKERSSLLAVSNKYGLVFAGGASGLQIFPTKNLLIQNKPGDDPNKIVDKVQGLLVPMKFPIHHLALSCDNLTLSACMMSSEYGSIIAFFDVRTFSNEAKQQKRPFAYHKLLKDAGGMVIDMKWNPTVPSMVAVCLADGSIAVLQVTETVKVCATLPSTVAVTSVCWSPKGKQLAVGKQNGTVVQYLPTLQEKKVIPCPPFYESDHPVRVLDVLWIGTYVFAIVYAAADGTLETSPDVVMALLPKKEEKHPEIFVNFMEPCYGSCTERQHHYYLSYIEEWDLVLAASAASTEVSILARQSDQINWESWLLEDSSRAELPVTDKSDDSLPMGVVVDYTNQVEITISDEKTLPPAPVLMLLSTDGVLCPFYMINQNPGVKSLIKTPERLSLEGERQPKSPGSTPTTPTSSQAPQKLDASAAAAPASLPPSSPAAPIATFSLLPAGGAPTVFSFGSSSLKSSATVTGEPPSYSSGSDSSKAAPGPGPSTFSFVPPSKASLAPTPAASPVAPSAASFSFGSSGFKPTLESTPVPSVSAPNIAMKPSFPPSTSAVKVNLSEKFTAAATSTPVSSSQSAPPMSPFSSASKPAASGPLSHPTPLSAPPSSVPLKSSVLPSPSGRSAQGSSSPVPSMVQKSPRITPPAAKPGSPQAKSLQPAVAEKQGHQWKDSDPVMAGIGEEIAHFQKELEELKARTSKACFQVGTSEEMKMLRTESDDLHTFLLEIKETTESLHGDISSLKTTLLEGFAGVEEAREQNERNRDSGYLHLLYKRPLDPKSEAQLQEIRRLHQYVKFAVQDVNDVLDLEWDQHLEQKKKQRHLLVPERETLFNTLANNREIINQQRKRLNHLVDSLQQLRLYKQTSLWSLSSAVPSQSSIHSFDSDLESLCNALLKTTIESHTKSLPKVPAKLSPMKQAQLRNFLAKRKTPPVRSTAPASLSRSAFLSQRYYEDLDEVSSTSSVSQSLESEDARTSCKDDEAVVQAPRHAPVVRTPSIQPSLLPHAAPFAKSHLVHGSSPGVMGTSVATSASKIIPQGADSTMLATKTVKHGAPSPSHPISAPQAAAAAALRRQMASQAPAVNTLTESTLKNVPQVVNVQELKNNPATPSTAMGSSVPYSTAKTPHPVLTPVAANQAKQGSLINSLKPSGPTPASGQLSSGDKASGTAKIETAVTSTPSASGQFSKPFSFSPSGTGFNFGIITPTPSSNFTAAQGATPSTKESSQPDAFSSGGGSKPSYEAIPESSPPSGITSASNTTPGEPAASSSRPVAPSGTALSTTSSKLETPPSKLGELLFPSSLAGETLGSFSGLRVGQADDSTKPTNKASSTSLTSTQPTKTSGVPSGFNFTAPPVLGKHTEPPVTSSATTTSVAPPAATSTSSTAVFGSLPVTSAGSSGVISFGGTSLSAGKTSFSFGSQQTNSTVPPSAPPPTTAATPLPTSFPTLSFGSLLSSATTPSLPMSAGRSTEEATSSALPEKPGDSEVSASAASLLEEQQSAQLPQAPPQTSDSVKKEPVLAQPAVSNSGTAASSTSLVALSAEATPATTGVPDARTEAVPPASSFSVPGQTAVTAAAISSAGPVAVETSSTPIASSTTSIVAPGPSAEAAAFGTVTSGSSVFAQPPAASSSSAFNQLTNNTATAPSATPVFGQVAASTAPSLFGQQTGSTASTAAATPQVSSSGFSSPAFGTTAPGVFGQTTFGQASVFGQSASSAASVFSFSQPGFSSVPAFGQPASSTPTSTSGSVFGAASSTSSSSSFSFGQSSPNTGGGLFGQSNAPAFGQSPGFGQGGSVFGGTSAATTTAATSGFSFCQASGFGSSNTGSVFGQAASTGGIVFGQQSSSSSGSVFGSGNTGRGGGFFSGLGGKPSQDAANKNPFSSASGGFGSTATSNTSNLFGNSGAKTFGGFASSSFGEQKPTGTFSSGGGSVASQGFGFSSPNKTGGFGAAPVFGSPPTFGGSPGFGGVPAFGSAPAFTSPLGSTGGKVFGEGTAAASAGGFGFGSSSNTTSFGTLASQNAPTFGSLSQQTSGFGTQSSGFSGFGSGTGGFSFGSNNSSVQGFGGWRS
UniProt P36543, whole entry: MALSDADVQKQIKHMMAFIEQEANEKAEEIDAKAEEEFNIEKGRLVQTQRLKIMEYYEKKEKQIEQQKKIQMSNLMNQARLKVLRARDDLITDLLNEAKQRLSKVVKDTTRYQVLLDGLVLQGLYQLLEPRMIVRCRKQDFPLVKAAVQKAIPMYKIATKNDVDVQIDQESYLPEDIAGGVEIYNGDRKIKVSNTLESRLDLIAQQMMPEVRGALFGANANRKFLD
UniProt P33991: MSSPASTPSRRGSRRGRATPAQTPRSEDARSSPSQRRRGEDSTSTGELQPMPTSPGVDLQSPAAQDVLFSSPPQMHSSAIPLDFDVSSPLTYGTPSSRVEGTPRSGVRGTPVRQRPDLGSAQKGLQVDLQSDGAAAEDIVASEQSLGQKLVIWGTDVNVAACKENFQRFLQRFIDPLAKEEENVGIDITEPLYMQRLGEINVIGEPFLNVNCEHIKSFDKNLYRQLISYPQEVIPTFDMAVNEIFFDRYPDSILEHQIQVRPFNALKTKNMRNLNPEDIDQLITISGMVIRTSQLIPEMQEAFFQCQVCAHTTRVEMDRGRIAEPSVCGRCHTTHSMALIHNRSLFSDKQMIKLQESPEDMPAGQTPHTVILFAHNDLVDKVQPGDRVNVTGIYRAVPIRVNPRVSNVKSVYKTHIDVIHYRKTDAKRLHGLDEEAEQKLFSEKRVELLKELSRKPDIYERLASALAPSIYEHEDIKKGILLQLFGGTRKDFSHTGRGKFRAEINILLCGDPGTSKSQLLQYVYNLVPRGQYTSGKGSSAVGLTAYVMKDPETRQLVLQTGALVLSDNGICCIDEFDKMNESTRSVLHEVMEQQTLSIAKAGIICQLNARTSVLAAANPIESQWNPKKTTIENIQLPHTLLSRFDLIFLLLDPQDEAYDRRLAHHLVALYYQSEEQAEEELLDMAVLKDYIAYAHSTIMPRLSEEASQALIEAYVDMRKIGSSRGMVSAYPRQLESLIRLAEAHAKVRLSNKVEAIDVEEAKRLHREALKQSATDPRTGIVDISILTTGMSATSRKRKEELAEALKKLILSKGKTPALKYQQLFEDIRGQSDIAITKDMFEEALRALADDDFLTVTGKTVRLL
UniProt P33993, whole entry: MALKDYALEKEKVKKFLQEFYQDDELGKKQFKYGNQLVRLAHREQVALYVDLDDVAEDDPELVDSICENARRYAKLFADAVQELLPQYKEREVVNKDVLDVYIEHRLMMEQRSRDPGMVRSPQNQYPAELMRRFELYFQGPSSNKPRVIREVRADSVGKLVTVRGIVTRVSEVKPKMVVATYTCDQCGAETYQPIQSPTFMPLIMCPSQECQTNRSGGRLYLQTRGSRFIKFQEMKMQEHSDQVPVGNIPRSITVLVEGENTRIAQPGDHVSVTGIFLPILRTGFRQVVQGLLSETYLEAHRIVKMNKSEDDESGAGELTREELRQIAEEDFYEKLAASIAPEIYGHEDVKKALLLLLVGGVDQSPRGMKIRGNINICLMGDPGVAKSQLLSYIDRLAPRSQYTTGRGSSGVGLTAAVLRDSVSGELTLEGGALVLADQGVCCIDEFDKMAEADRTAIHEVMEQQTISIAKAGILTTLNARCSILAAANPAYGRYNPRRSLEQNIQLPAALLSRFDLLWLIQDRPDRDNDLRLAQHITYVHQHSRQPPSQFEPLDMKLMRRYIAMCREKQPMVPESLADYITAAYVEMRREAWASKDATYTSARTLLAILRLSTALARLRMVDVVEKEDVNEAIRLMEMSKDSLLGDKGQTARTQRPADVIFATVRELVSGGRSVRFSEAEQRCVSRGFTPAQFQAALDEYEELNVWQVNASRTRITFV
UniProt P29372, whole entry: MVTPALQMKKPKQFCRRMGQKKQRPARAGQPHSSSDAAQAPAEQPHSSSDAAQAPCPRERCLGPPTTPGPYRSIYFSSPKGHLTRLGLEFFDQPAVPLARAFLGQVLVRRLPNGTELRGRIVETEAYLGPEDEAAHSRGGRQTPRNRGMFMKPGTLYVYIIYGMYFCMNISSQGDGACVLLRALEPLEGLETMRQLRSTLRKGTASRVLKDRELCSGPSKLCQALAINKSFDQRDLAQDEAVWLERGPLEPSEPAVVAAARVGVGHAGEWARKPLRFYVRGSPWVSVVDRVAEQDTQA
UniProt P30307: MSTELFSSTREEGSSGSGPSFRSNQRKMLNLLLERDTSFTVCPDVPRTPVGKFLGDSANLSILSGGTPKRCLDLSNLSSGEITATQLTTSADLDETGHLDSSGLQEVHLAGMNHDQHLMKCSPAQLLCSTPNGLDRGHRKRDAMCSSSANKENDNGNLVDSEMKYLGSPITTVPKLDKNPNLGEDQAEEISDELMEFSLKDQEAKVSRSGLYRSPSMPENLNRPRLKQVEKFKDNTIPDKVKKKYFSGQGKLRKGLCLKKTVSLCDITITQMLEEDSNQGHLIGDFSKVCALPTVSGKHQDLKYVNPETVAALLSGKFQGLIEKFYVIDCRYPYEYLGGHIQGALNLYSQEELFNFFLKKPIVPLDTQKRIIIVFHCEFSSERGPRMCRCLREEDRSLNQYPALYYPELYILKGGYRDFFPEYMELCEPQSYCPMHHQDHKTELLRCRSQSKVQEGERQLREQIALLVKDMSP
UniProt P43361: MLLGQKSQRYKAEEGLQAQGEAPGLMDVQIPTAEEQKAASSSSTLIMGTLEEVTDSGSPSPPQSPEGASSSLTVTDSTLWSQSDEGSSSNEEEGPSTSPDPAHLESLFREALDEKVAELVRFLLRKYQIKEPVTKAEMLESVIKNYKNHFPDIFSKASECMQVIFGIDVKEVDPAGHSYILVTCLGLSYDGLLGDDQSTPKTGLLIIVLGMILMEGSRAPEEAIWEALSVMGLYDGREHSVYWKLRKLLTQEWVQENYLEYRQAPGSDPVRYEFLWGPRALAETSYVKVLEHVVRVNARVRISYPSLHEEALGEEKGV
UniProt P30048: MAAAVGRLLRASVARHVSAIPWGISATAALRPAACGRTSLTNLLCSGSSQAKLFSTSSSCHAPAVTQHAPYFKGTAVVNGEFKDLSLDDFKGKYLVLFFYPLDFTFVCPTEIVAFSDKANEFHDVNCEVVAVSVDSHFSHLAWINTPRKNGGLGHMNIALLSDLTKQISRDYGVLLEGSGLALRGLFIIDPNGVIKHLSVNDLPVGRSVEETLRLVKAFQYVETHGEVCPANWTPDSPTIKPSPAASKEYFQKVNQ

This is one part of the list. Small differences around the control level are noise.

Compound in the experiment: CN[C@@H]1C[C@H]2O[C@@](C)([C@@H]1OC)n1c3ccccc3c3c4c(c5c6ccccc6n2c5c31)C(=O)NC4 [staurosporine]
The experiment in a line: log2 fold change of tryptic peptide abundance, ligand vs vehicle (limited proteolysis) (log2 ratio); higher = more trypsin-susceptible (destabilized). The note with it: ligand concentration: 20 uM; sample: K562 cleared lysate; digestion: 4 min, 22 C (HT-PELSA RT4min, Orbitrap Astral).
For “GRN (peptide sequence: CITPTGTHPLAK, peptide start residue: 178) (UniProt P28799)”, the log2 fold change is -0.969.
Take “CLIP1 (peptide sequence: IGFPSTTPAK, peptide start residue: 281) (UniProt P30622)”: the log2 fold change is 0.369.
The value for “TEAD1 (peptide sequence: ALQHMAAMSSAQIVSATAIHNK, peptide start residue: 118) (UniProt P28347)” was 0.0973; that for “UniProt P30049 (peptide sequence: IEANEALVK, peptide start residue: 157)” was 0.0372; that for “HELZ (peptide sequence: SLTGESLNGMVTK, peptide start residue: 118) (UniProt P42694)” was 0.329.
On to “LONP1 (peptide sequence: LKELVVPK, peptide start residue: 425) (UniProt P36776)”, for which the log2 fold change amounted to 0.249.
With “MTOR (peptide sequence: HCADHFLNSEHKEIR, peptide start residue: 605) (UniProt P42345)” the figure was -0.306; with “CORO1A (peptide sequence: RLDRLEETVQAK, peptide start residue: 450) (UniProt P31146)”, 0.826; with “NUP214 (peptide sequence: MLRTESDDLHTFLLEIK, peptide start residue: 739) (UniProt P35658)”, 0.564.
“ATP6V1E1 (peptide sequence: VSNTLESR, peptide start residue: 192) (UniProt P36543)”: the log2 fold change is -0.157.
With “RECQL (peptide sequence: QKPSNTEDFIEDIVK, peptide start residue: 292) (UniProt P46063)” the figure was 0.521; with “TNFRSF8 (peptide sequence: ADTVIVGTVK, peptide start residue: 522) (UniProt P28908)”, -0.275.
The value for “RPL3 (peptide sequence: KAHLMEIQVNGGTVAEKLDWAR, peptide start residue: 177) (UniProt P39023)” was -0.173.
On to “CSTF2 (peptide sequence: GYLGPPHQGPPMHHVPGHESR, peptide start residue: 345) (UniProt P33240)”, for which the log2 fold change is -0.126.
With “STAT6 (peptide sequence: AVMEQFR, peptide start residue: 109) (UniProt P42226)”, the log2 fold change worked out at 0.208.
The value for “MCM4 (peptide sequence: FRAEINILLCGDPGTSK, peptide start residue: 500) (UniProt P33991)” was -0.21; that for “ACAA2 (peptide sequence: TNVNGGAIALGHPLGGSGSR, peptide start residue: 341) (UniProt P42765)” was -0.289.
With “MCM7 (peptide sequence: IRGNINICLMGDPGVAK, peptide start residue: 371) (UniProt P33993)” the figure was -0.225; with “ARL3 (peptide sequence: LNVWDIGGQRK, peptide start residue: 63) (UniProt P36405)”, 0.163.
The value for “MPG (peptide sequence: ERCLGPPTTPGPYR, peptide start residue: 59) (UniProt P29372)” was -0.198; that for “CDC25C (peptide sequence: IIIVFHCEFSSER, peptide start residue: 371) (UniProt P30307)” was 0.359; that for “UniProt P35626 (peptide sequence: IVLPEPSIR, peptide start residue: 32)” was 0.72.
Turning to “MAGEA8 (peptide sequence: AEMLESVIK, peptide start residue: 126) (UniProt P43361)”, the log2 fold change came out at 0.356.
With “CASP2 (peptide sequence: RGPQAFDAFCEALR, peptide start residue: 94) (UniProt P42575)” the figure was 0.149; with “RBL1 (peptide sequence: DMQPLSPISVHER, peptide start residue: 635) (UniProt P28749)”, 0.256.
With “PRDX3 (peptide sequence: HLSVNDLPVGR, peptide start residue: 197) (UniProt P30048)” the figure was 0.143.
With “PTPN9 (peptide sequence: QGIYEEYEDIRR, peptide start residue: 301) (UniProt P43378)” the figure was -0.199; with “PRDX5 (peptide sequence: KGVLFGVPGAFTPGCSK, peptide start residue: 86) (UniProt P30044)”, 0.128.
